Test results reported in PubChem BioAssay AID504444 (National Center for Advancing Translational Sciences (NCATS), 2011).
Where “and” joins values, the source holds several entries; their conditions need not be identical. Equal values may be shown once. Out of some 360,000 compounds screened, about 7,500 (2.1%) were called active. Inconclusive results, whose numbers are uncertain, are shown with a selection of clear calls. Calls come from the whole dose curve; as a rule, active = well fitted inhibition curve with a large enough effect; inconclusive = small, poorly fitted or top-dose-only effect, or effect the other way; inactive = flat fitted curve, though single readings scatter. Potencies beside an inconclusive call are fits to weak or partial responses and may not hold up.

experiment: Nrf2 qHTS screen for inhibitors; details: A549 ARE-Fluc reporter, luciferase luminescence, 18-24 h; series mostly up to 46 µM; note: nearly all actives have a fitted effect of over 60% in size
In short: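 Nrf2 function is reported as luminescence of an ARE-controlled luciferase in A549 cells. Compounds were tested at several concentrations, and a CellTiter-Fluor read on the same wells flagged cytotoxicity.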
Potency is the fitted concentration of half-maximal effect.

**Q.** For `O=C(NNC1CC(=O)N(c2ccccc2)C1=O)c1cccnc1` (centres undefined), which Potency is on record?
**A.** Its Potency is inconclusive: 29.1 µM [activator, partial curve, poor fit].

**Q.** For `CC(=O)Nc1cccc(NC(=O)C(=O)c2cn(CC(=O)N3CCCCC3)c3ccccc23)c1`, which Potency is on record?
**A.** Its Potency is inconclusive: 2.31 µM [activator, partial curve, poor fit].

**Q.** Which Potency does the source give for `Cc1cnc(C(=O)OCC(=O)N2C(C)CCCC2C)cn1` (centres undefined) here?
**A.** Its Potency is “inactive”.

**Q.** Which Potency does the source give for `CC(C)c1ccc(C2CC(c3ccc(Br)cc3)=NN2C(N)=S)cc1` (centres undefined) here?
**A.** The Potency was inconclusive: 25.9 µM [falling, single point].

**Q.** Which Potency does the source give for `O=C(CN1CCN(c2ccccc2)CC1)c1ccc2cc[nH]c2c1` here?
**A.** The Potency was “inactive”.

**Q.** For `c1ccc(-c2cc(N3CCCCCC3)n[nH]2)cc1`, which Potency is on record?
**A.** The Potency was inconclusive: 29.1 µM [activator, single point].

**Q.** For `COc1cccc2sc(=NC(=O)CS(=O)(=O)c3ccc(Cl)cc3)n(C)c12`, which Potency is on record?
**A.** The Potency was inconclusive: 6.51 µM [falling, partial curve].

**Q.** Which Potency does the source give for `O=C(c1ccc(-c2ccc(Cl)cc2)o1)N1CCN(S(=O)(=O)c2cccs2)CC1` here?
**A.** Its Potency is inconclusive: 29.1 µM [falling, single point].

**Q.** For `Cc1cc(Cl)c2oc(C(=O)NCCC3CCCCO3)c(C)c2c1` (centres undefined), which Potency is on record?
**A.** Its Potency is inconclusive: 16.4 µM [activator, partial curve].

**Q.** Which Potency does the source give for `Cc1c(C(=O)N(Cc2cccc(F)c2)C2CCS(=O)(=O)C2)oc2cc(Br)ccc12` (centres undefined) here?
**A.** The Potency was active: 13 µM.

**Q.** With `CC1CCCCC1NC(=O)COC(=O)c1c2c(nc3ccccc13)/C(=C\c1ccco1)CC2` (centres undefined) as the molecule, how does the Potency read?
**A.** The Potency was “inactive”.

**Q.** Which Potency does the source give for `COc1ccc(NC(=O)CN2C(=O)C3(SCC(=O)N3c3ccccc3)c3ccccc32)cc1Cl` (centres undefined) here?
**A.** Its Potency is inconclusive: 29.1 µM [falling, single point].

**Q.** With `CC1CCN(CCCNC(=O)CCCNC(=O)Cn2cnc3sc4c(c3c2=O)CCCC4)CC1` as the molecule, how does the Potency read?
**A.** Its Potency is inconclusive: 0.164 µM [falling, full curve, poor fit].

**Q.** For `COc1ccc(C(=O)c2ccc(OC)cc2O)c(O)c1`, which Potency is on record?
**A.** The Potency was inconclusive: 25.9 µM [activator, single point].

**Q.** With `Cc1cccn2c(=O)c3cc(C(=O)NC4CCCC4)c(=N)n(CCc4ccccc4)c3nc12` as the molecule, how does the Potency read?
**A.** The Potency was inconclusive: 0.92 µM [activator, full curve, poor fit].

**Q.** For `CCn1c(SCC(=O)N/N=C/C=C\c2ccco2)nc2ccccc21`, which Potency is on record?
**A.** Its Potency is inconclusive: 6.51 µM [activator, partial curve, poor fit].

**Q.** For `CN(C(=O)c1cccc(NC(=O)Cc2cccc(NC(=O)C3CCN(C(=O)C4CCC4)CC3)c2)c1)C1CCC1`, which Potency is on record?
**A.** Its Potency is inconclusive: 20.6 µM [falling, single point].

**Q.** Which Potency does the source give for `COc1ccc(CNC(=O)c2cccc(N3CCCS3(=O)=O)c2)cc1OC` here?
**A.** The Potency was active: 2.59 µM.

**Q.** With `CC1CC1C(=O)Nc1nc2ccc(S(C)(=O)=O)cc2s1` (centres undefined) as the molecule, how does the Potency read?
**A.** The Potency was inconclusive: 25.9 µM [activator, single point].

**Q.** Which Potency does the source give for `C=CCN(c1ccccc1OC)S(=O)(=O)c1cccc(C(=O)NCc2cccs2)c1` here?
**A.** The Potency was inconclusive: 29.1 µM [falling, single point].

**Q.** Which Potency does the source give for `CCCn1c(=O)c(C(=O)Nc2ccccc2C(=O)OC)c(O)c2ccccc21` here?
**A.** Its Potency is “inactive”.

**Q.** For `Cc1cc(C)cc(NC(=O)N2CCC(CN3CCc4ccccc4C3)CC2)c1`, which Potency is on record?
**A.** The Potency was inconclusive: 8.2 µM [falling, partial curve].

**Q.** Which Potency does the source give for `CCc1cccc(OCC2Cn3c(nc4c3c(=O)n(C)c(=O)n4C)O2)c1` (centres undefined) here?
**A.** The Potency was inconclusive: 10.3 µM [falling, partial curve, poor fit].

**Q.** For `Nc1c(-c2ccccc2)c(CSc2nc3ccccc3[nH]2)nn1-c1ccc(Cl)cc1`, which Potency is on record?
**A.** The Potency was inconclusive: 18.4 µM [falling, single point].

**Q.** Which Potency does the source give for `CCCN(CCC)CCNC(=O)c1sc2nc3n(c(=O)c2c1C)CCCCC3` here?
**A.** The Potency was “inactive”.

**Q.** Which Potency does the source give for `COc1ccc(CCC(=O)Nc2ccc(OC)c(S(=O)(=O)N3CCCCC3)c2)cc1` here?
**A.** The Potency was active: 16.4 µM.

**Q.** With `COC(=O)c1c(NC(=O)c2nc(SCc3ccccc3C)ncc2Cl)sc2c1CCCC2` as the molecule, how does the Potency read?
**A.** The Potency was “inactive”.

**Q.** With `O=C(O)c1ccccc1Nc1ccc(OC(F)F)cc1` as the molecule, how does the Potency read?
**A.** The Potency was inconclusive: 18.4 µM [activator, partial curve].

**Q.** For `Cc1ccc(C(=O)Nc2cccc3cccnc23)cc1C`, which Potency is on record?
**A.** The Potency was inconclusive: 18.4 µM [activator, single point].

**Q.** With `OC1c2cc(Br)ccc2N=C2CCCN21` (centres undefined) as the molecule, how does the Potency read?
**A.** Its Potency is “inactive”.

**Q.** Which Potency does the source give for `CC(=NNC(=O)CSCC(=O)NN=C(C)c1ccccc1)c1ccccc1` here?
**A.** The Potency was inconclusive: 23.1 µM [falling, partial curve, poor fit].

**Q.** For `O=C(Cn1c(NCCO)nc2ccccc21)NCC1CCCO1` (centres undefined), which Potency is on record?
**A.** Its Potency is inconclusive: 5.17 µM [activator, single point].

**Q.** Which Potency does the source give for `O=S(=O)(c1ccc(Cl)cc1)N1CCN(c2nc(-c3ccccc3)nc3ccccc23)CC1` here?
**A.** The Potency was inconclusive: 29.1 µM [activator, single point].

**Q.** With `O=C(COc1ccc2c(-c3ccccc3)cc(=O)oc2c1)NC1CCS(=O)(=O)C1` (centres undefined) as the molecule, how does the Potency read?
**A.** Its Potency is inconclusive: 14.6 µM [falling, partial curve, poor fit].

**Q.** Which Potency does the source give for `Cc1cccc2sc(N(CCCN(C)C)C(=O)c3ccc(C(=O)c4ccccc4)cc3)nc12` here?
**A.** Its Potency is inconclusive: 29.1 µM [activator, single point].

**Q.** With `Cn1c(-c2c(N)n(C3CCCC3)c3nc4ccccc4nc23)nc2ccccc21` as the molecule, how does the Potency read?
**A.** The Potency was inconclusive: 29.1 µM [falling, single point].

**Q.** For `Cc1cnc(NC(=O)CC2CCCC2)s1`, which Potency is on record?
**A.** The Potency was inconclusive: 20.6 µM [activator, partial curve, poor fit].

**Q.** Which Potency does the source give for `C=CCc1ccc(OCc2ccc(C(=O)Nc3ccc(NC(C)=O)cc3)o2)c(OC)c1` here?
**A.** The Potency was inconclusive: 1.46 µM [activator, full curve, poor fit] and inconclusive: 10.3 µM [activator, partial curve, poor fit].

**Q.** Which Potency does the source give for `Cc1ccc(Nc2cc(C)c3c(O)cccc3n2)cc1C` here?
**A.** Its Potency is inconclusive: 4.11 µM [activator, full curve].

**Q.** With `O=S(=O)(Nc1cccc2cccnc12)c1cccs1` as the molecule, how does the Potency read?
**A.** The Potency was active: 18.4 µM.

**Q.** With `CCCOc1ccc(C(=O)NNC(=S)NC(=O)c2cccs2)cc1` as the molecule, how does the Potency read?
**A.** Its Potency is active: 7.31 µM.

**Q.** Which Potency does the source give for `COc1cccc(NC(=O)Nc2cc(Cl)ccc2C)c1` here?
**A.** The Potency was active: 18.4 µM.

**Q.** With `COc1ccc2c(c1)c(=O)oc1cc(OCC(=O)N3CCC(C)CC3)ccc12` as the molecule, how does the Potency read?
**A.** The Potency was inconclusive: 14.6 µM [falling, partial curve, poor fit].

**Q.** Which Potency does the source give for `Nc1nc(NCCc2ccccc2)c2[nH]cnc2n1` here?
**A.** The Potency was inconclusive: 29.1 µM [activator, single point].

**Q.** With `O=C(N/N=C/c1cc(Cl)ccc1O)c1ccc(Br)cc1` as the molecule, how does the Potency read?
**A.** The Potency was inconclusive: 23.1 µM [falling, single point].

**Q.** For `COc1cccc(NC(CNS(=O)(=O)c2ccc(Cl)cc2)c2ccccc2)c1` (centres undefined), which Potency is on record?
**A.** The Potency was inconclusive: 29.1 µM [falling, single point].

**Q.** Which Potency does the source give for `O=C(O)/C=C/c1cn(-c2ccccc2)nc1-c1ccc2c(c1)OCCO2` here?
**A.** The Potency was inconclusive: 0.259 µM [falling, partial curve, poor fit].

**Q.** Which Potency does the source give for `CCCCCOC(=O)NCC(O)c1ccccc1` (centres undefined) here?
**A.** The Potency was inconclusive: 5.17 µM [activator, full curve, poor fit].

**Q.** With `O=C1C2CC=C(Cl)CC2C(=O)N1CNc1ccccn1` (centres undefined) as the molecule, how does the Potency read?
**A.** Its Potency is inconclusive: 7.31 µM [falling, partial curve, poor fit].

**Q.** With `C(=C\c1nnc2c3ccccc3ncn12)/c1ccccc1` as the molecule, how does the Potency read?
**A.** The Potency was inconclusive: 8.2 µM [activator, partial curve].

**Q.** For `Cc1nn(-c2ccc([N+](=O)[O-])cc2)c(N)c1-c1ccccc1`, which Potency is on record?
**A.** Its Potency is inconclusive: 29.1 µM [activator, single point].

**Q.** Which Potency does the source give for `NS(=O)(=O)c1ccc(NC(=O)COC(=O)c2c3c(nc4ccccc24)/C(=C\c2ccc4c(c2)OCO4)CCC3)cc1` here?
**A.** Its Potency is “inactive”.

**Q.** Which Potency does the source give for `Cc1ccc(C23CC4CC(CC(C(=O)NCC(=O)O)(C4)C2)C3)cc1` here?
**A.** The Potency was inconclusive: 0.146 µM [falling, full curve, poor fit].

**Q.** Which Potency does the source give for `Cc1ccc(NC(=O)c2ccc(OC(=O)COc3ccc(Cl)cc3C)cc2)cc1` here?
**A.** The Potency was inconclusive: 9.2 µM [activator, partial curve].

**Q.** With `COc1ccc(CCNC(=O)c2nnn(-c3cc(C)cc(C)c3)c2N)cc1OC` as the molecule, how does the Potency read?
**A.** The Potency was inconclusive: 25.9 µM [falling, partial curve, poor fit].

**Q.** With `CCOC(=O)c1cccc(NC(=O)CSc2nc3ccccc3c(=O)n2CCOC)c1` as the molecule, how does the Potency read?
**A.** Its Potency is inconclusive: 18.4 µM [falling, single point].

**Q.** With `O=C(NC(=S)Nc1cc([N+](=O)[O-])ccc1O)c1ccc2c(c1)OCO2` as the molecule, how does the Potency read?
**A.** Its Potency is inconclusive: 3.66 µM [activator, partial curve, poor fit].

**Q.** For `CCN(CC)S(=O)(=O)c1ccc(N2CCc3ccccc3C2)nc1`, which Potency is on record?
**A.** The Potency was inconclusive: 8.2 µM [activator, partial curve, poor fit].

**Q.** With `CCc1cccc(NC(=O)C2CCC(CNS(=O)(=O)c3ccc4c(c3)CCCC(=O)N4)CC2)c1` (centres undefined) as the molecule, how does the Potency read?
**A.** The Potency was active: 13 µM.

**Q.** Which Potency does the source give for `Cc1ccc(OC(=O)c2ccc(C)c([N+](=O)[O-])c2)cn1` here?
**A.** Its Potency is inconclusive: 1.64 µM [falling, partial curve, poor fit].

**Q.** With `O=C(N/N=C/c1ccc([N+](=O)[O-])o1)c1ccc(O)cc1` as the molecule, how does the Potency read?
**A.** The Potency was active: 20.6 µM.

**Q.** Which Potency does the source give for `COc1cccc2c1C(=N)c1c(O)c3c(c(O)c1C2=O)CC(O)(C(C)=O)CC3OC1CC(N)C(O)C(C)O1` (centres undefined) here?
**A.** The Potency was inconclusive: 0.82 µM [falling, full curve].

**Q.** With `COc1ccccc1/C=C/CN1CCN(Cc2ccc(F)cc2)C(CCO)C1` (centres undefined) as the molecule, how does the Potency read?
**A.** Its Potency is “inactive”.

**Q.** Which Potency does the source give for `O=C(CCCl)N1c2ccccc2C=Cc2ccccc21` here?
**A.** The Potency was inconclusive: 23.1 µM [falling, single point].
